From patent publication US20090111753A1, “Nogo-A Polypeptide Fragments, Variant Nogo Receptor-1 Polypeptides, and Uses Thereof” (Yale University, priority 2004, published 2009)
Results are given in words; binding and its absence hold for the method and conditions named. Some results given as binding are weak or reduced against the parent protein; the word gives no strength.

Key:
Test in all cases: AP-ligand binding, COS-7
[1] = target: T1, human NgR1 alanine mutant 127 (human) (UniProt Q9BZR6)
T1 sequence: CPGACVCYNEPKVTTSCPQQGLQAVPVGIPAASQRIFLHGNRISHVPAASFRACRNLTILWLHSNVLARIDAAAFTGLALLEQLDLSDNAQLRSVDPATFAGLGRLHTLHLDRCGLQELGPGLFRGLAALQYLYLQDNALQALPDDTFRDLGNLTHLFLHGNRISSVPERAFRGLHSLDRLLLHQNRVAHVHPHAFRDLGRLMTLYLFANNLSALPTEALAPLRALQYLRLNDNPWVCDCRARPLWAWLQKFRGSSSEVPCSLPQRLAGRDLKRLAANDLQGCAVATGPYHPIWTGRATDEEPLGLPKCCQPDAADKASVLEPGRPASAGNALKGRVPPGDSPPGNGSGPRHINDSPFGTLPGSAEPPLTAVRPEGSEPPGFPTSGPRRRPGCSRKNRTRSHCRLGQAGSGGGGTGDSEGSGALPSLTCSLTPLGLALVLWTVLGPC

[2] = target: T2, human NgR1 alanine mutant 139 (human) (UniProt Q9BZR6)
T2 sequence: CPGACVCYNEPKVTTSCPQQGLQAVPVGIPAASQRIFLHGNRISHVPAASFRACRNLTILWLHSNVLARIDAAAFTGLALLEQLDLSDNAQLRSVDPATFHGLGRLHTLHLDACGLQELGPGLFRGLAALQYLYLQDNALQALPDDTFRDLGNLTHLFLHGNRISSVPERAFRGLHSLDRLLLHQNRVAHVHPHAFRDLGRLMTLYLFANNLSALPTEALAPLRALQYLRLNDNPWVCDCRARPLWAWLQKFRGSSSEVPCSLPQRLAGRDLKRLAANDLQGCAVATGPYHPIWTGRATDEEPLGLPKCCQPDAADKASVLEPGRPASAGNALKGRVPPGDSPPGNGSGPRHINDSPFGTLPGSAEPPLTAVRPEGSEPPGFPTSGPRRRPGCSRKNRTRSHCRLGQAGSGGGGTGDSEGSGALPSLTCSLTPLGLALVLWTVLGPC

[3] = target: T3, human NgR1 alanine mutant 143, 144 (human) (UniProt Q9BZR6)
T3 sequence: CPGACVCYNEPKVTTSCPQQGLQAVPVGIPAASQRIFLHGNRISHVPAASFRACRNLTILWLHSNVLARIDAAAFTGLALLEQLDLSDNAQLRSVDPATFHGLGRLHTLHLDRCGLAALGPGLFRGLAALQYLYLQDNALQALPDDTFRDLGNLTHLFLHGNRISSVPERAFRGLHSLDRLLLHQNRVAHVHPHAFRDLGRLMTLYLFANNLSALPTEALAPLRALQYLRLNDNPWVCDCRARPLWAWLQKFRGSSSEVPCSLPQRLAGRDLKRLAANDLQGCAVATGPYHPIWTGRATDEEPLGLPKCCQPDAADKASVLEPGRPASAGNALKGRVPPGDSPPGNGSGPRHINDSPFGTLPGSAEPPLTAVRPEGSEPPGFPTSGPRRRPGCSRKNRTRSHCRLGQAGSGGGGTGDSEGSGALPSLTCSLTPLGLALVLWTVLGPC

[4] = target: T4, human NgR1 alanine mutant 151 (human) (UniProt Q9BZR6)
T4 sequence: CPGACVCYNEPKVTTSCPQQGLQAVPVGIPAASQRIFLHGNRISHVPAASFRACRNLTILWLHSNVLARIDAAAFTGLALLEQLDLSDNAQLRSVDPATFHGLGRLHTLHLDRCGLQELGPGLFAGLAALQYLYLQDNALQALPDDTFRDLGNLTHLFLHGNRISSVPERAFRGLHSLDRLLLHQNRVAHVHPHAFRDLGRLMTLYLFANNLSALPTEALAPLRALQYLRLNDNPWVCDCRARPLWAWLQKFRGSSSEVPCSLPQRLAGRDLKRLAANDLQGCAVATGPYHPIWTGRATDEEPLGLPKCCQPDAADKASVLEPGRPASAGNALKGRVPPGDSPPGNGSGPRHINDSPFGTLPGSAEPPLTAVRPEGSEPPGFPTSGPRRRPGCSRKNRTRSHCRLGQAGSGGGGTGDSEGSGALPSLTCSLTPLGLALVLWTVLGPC

[5] = target: T5, human NgR1 alanine mutant 296, 297, 300 (human) (UniProt Q9BZR6)
T5 sequence: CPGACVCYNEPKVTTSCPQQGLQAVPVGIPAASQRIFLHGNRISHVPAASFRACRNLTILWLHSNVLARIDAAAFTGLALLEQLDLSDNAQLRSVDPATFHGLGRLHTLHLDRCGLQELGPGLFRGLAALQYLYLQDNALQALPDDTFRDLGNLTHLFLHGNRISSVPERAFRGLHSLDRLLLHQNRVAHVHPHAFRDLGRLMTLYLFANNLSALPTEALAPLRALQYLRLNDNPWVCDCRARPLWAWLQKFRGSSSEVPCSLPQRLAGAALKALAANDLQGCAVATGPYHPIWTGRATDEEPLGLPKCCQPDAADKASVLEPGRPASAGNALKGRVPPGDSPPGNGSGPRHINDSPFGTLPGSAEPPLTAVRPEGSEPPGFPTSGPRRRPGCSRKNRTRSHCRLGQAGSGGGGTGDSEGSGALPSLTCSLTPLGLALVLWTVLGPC

[6] = target: T6, human NgR1 alanine mutant 61, 108, 131 (human) (UniProt Q9BZR6)
T6 sequence: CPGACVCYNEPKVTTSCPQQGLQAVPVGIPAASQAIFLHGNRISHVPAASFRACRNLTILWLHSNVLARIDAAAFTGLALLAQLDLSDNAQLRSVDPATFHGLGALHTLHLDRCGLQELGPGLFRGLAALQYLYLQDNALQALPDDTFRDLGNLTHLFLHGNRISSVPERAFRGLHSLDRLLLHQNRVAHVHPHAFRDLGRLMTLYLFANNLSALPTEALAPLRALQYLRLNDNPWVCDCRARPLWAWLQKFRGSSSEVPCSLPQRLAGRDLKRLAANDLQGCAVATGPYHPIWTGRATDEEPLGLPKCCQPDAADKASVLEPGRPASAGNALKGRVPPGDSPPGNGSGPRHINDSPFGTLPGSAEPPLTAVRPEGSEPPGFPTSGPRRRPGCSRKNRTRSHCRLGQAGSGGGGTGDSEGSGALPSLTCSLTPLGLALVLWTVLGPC

Measured: binding

B1: AP-Nogo-66 (ligand, UniProt Q9NQC3 1055-1120, looked up)
chain: RIYKGVIQAIQKSDEGHPFRAYLESEVAISEELVQKYSNSALGHVNCTIKELRRLFLVDDLVDSLK
notes: domain: Nogo-66; construct described elsewhere (Fournier 2001); also called AP-Ng66; Ng66; not shown: alkaline phosphatase (AP); construct described elsewhere
binds: all assays above

B2: AP-fused Amino-Nogo fragment B4C (a.a. 950-1018) (ligand)
chain: LLPPDVSALATQAEIESIVKPKVLVKEAEKKLPSDTEKEDRSPSAIFSAELSKTSVVDLLYWRDIKKTG
notes: also called AmNg B4C; AP-B4C; not shown: alkaline phosphatase (AP), vector pcAP6
binds: all assays above
